Experimental findings from PMC7005868 are described below.

Sequences of proteins named here, by UniProt entry; tags and fusion partners are left off. A change or cut given only in a name is not applied to a line headed by its entry. A line that says so, or that is headed by a name, gives the form on record, which may keep a tag or linker. Residues count along the entry.
CD63-GLucC (CD63 truncated at Val206 fused to the C-terminal fragment of Gaussia luciferase) (P08962, residues 1-206): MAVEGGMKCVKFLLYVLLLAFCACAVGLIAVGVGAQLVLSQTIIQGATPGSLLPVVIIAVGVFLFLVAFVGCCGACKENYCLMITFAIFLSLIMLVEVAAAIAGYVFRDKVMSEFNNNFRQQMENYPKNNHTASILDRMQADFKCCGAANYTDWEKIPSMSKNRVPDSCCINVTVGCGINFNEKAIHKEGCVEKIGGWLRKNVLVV
CD63-GLucC TPGS (T48-S51 of the small extracellular loop substituted for alanine) (P08962, form named): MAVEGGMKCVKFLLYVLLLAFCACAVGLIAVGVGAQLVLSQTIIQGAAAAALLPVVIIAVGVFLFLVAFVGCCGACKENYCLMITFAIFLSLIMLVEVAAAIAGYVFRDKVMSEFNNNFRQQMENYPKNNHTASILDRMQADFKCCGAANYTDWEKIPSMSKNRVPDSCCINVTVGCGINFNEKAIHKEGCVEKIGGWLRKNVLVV
CD63-GLucC 7AA (Q36-T42 of the small extracellular loop substituted for alanine) (P08962, form named): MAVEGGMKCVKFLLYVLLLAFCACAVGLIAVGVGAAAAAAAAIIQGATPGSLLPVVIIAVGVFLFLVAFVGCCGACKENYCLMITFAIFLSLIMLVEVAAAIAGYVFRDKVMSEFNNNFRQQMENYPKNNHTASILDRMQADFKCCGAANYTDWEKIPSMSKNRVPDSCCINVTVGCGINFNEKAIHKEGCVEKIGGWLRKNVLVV
CD63-GLucC IIQ (I43-Q45 of the small extracellular loop substituted for alanine) (P08962, form named): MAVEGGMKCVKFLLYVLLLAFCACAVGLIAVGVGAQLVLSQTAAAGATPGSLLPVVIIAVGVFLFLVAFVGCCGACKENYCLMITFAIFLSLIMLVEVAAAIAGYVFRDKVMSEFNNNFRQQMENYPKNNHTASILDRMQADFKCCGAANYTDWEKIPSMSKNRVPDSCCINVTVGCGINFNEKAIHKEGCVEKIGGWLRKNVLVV
UniProt P01033, residues 24-207: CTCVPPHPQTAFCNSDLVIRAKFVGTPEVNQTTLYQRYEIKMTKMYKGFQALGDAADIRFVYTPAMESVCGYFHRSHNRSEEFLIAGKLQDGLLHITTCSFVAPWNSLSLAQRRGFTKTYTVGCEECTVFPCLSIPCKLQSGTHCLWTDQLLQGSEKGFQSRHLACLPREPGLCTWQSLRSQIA

Assay [1] has as its target CD63-GLucC TPGS (T48-S51 of the small extracellular loop substituted for alanine) (UniProt P08962). The assay is described as follows: split reporter; Gaussia luciferase protein complementation assay (PCA); GLucN and GLucC fusion plasmids co-transfected 1:1 into HEK293FT; membranes disrupted by two freeze-thaw cycles; luminescence with 10 uM coelenterazine.
Assay [2] has as its target CD63-GLucC (CD63 truncated at Val206 fused to the C-terminal fragment of Gaussia luciferase) (UniProt P08962). Described as above.
In assay [3] the target is CD63-GLucC 7AA (Q36-T42 of the small extracellular loop substituted for alanine) (UniProt P08962). Described as above.
Assay [4] addresses CD63-GLucC IIQ (I43-Q45 of the small extracellular loop substituted for alanine) (UniProt P08962). The description is as above.
The target in assay [5] is T1, hepatocyte nuclear factor 4α (HNF4), as GLucN-HNF4 and as HNF4-GLucC (UniProt P41235).
T1 sequence: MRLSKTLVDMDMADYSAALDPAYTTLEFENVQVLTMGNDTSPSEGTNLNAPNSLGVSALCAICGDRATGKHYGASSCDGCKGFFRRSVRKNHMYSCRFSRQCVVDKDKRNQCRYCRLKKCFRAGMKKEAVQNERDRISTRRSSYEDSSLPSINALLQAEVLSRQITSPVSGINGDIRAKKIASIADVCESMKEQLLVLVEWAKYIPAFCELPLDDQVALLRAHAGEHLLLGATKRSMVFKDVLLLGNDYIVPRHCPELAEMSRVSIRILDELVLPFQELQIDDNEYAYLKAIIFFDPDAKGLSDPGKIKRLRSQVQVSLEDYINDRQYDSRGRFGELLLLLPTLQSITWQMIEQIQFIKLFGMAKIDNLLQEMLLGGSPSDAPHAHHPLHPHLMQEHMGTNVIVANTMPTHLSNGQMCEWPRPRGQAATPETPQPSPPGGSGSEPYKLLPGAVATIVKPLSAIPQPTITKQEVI
The description is as above.

Assay [6] has as its target CD63-GLucC (CD63 truncated at Val206 fused to the C-terminal fragment of Gaussia luciferase) (UniProt P08962). As to the kind of experiment: split reporter; Gaussia luciferase protein complementation assay (PCA) in live HEK293FT cells, no freeze-thaw; coelenterazine added to the live cell culture; also with or without anti-TIMP-1 antibodies.

These are yes or no findings as the source states them, for the method shown. Binding seen in cells or lysates may run through a third protein. Some binding calls cover weakened binding; strength is not graded here. For some of these results: Sequences can lack the tags named with a protein.

For “GLucN-TIMP-1 (tissue inhibitor of metalloproteinases-1 fused to the N-terminal fragment of Gaussia luciferase) (from UniProt P01033 24-207)”, the binding result was “binds” in assay [1]; “binds” in assay [2]; “binds” in assay [3]; “binds” in assay [4]; “no binding” in assay [5]; “binds” in assay [6].

B1: hepatocyte nuclear factor 4α (HNF4), as GLucN-HNF4 and as HNF4-GLucC (protein, UniProt P41235 1-474)
chain: MRLSKTLVDMDMADYSAALDPAYTTLEFENVQVLTMGNDTSPSEGTNLNAPNSLGVSALCAICGDRATGKHYGASSCDGCKGFFRRSVRKNHMYSCRFSRQCVVDKDKRNQCRYCRLKKCFRAGMKKEAVQNERDRISTRRSSYEDSSLPSINALLQAEVLSRQITSPVSGINGDIRAKKIASIADVCESMKEQLLVLVEWAKYIPAFCELPLDDQVALLRAHAGEHLLLGATKRSMVFKDVLLLGNDYIVPRHCPELAEMSRVSIRILDELVLPFQELQIDDNEYAYLKAIIFFDPDAKGLSDPGKIKRLRSQVQVSLEDYINDRQYDSRGRFGELLLLLPTLQSITWQMIEQIQFIKLFGMAKIDNLLQEMLLGGSPSDAPHAHHPLHPHLMQEHMGTNVIVANTMPTHLSNGQMCEWPRPRGQAATPETPQPSPPGGSGSEPYKLLPGAVATIVKPLSAIPQPTITKQEVI
B1: the binding entry in assay [2] is “no binding”.
